Some of these results come from one statement about several compounds together.
Tested on: cellular pERK in NCI-H1975 cells (EGFR/L858R-T790M)
Experiment: pERK potency assay (In Cell ELISA)
Type: cell-based
Conditions: 1 h compound incubation
Description: The assay measures the ability of a compound to inhibit SOS1 function in cells. SOS1 activates RAS proteins by catalyzing the conversion of RAS GDP to RAS GTP in response to receptor tyrosine kinase activation. Activation of RAS induces a sequence of cellular signaling events that result in increased phosphorylation of ERK at Threonine 202 and Tyrosine 204 (pERK). The procedure (i.e., In Cell ELISA as described below) measures the level of cellular pERK in response to a test compound in NCI-H1975 cells (EGFR/L858R-T790M).
First, NCI-H1975 cells were grown and maintained using media and procedures recommended by the ATCC. A day before compound addition, cells were plated in poly-D-lysine coated 96-well cell culture plates (Corning® BioCoat® Cat #356640) at 25000 cells/well/100 μL and grown overnight in an incubator at 37° C. with 5% CO2. A solution of a test compound was prepared with 3-fold serial dilutions in DMSO having a top concentration of 6 mM. On the day of the assay, 50 μL of a test compound dilution in media was added to each well of cell culture plate with a final compound concentration in the range of 0.001 μM to 20 μM. […] The Cellular pERK level was determined using the microplate reader (Biotek Synergy™ H1) to detect the chemiluminescence signal. IC50 was determined by fitting a 4-parameter sigmoidal concentration-response model.

“1-((R)-4-((Z)-1,2-dimethyl-4-(((R)-1-(2-methyl-3-(trifluoromethyl)phenyl)-ethyl)imino)-1,4-dihydropyrido[3,4-d]pyrimidin-6-yl)-6-methyl-3,6-dihydropyridin-1(2H)-yl)ethan-1-one and 1-((R)-4-((Z)-1,2-dimethyl-4-(((R)-1-(2-methyl-3-(trifluoromethyl)-phenyl)ethyl)imino)-1,4-dihydropyrido[3,4-d]pyrimidin-6-yl)-2-methyl-3,6-dihydropyridin-1(2H)-yl)ethan-1-one [Compound 44]” gave an IC50 of under 100 nM.

Reference: patent publication US20240190868A1, “SOS1 INHIBITORS” (Acerand Therapeutics (USA) Limited, priority 2022, published 2024)
